Results reported in the supplement of paper PMC8728848.
This is one part of the list.

Legend:
Test in all cases: glycan array binding signal (z-score within array); higher = stronger binding
Settings in all cases: glycan notation: IUPAC condensed, linker removed
[1] = molecular target: Gal3S(b1-4)Glc
Method in brief: (§1)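 From the Consortium for Functional Glycomics database, 3228 arrays were curated, keeping only those whose protein sequence was available. Binding is given as a within-array Z-score averaged across arrays sharing a protein sequence and across linkers. Negative Z-scores can be read as non-binding.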

[2] = molecular target: Gal3S(b1-4)Glc6S
Method in brief: as §1

[3] = molecular target: Gal3S(b1-4)GlcNAc
Method in brief: as §1

[4] = molecular target: Gal3S(b1-4)[Fuc(a1-3)]Glc6S
Method in brief: as §1

[5] = molecular target: Gal3S(b1-4)[Fuc(a1-3)]GlcNAc
Method in brief: as §1

[6] = molecular target: Gal3S(b1-4)[Fuc(a1-3)]GlcNAc6S
Method in brief: as §1

[7] = molecular target: Gal3S4S(b1-4)GlcNAc
Method in brief: as §1

[8] = molecular target: Gal3S6S(b1-4)GlcNAc
Method in brief: as §1

[9] = molecular target: Gal3S6S(b1-4)GlcNAc6S
Method in brief: as §1

[10] = molecular target: Gal4S(b1-4)GlcNAc
Method in brief: as §1

[11] = molecular target: Gal4S6S(b1-4)GlcNAc
Method in brief: as §1

[12] = molecular target: Gal6P(b1-4)GlcNAc
Method in brief: as §1

[13] = molecular target: Gal6S(b1-3)GlcNAc
Method in brief: as §1

[14] = molecular target: Gal6S(b1-3)GlcNAc6S
Method in brief: as §1

[15] = molecular target: Gal6S(b1-4)Glc
Method in brief: as §1

[16] = molecular target: Gal6S(b1-4)Glc6S
Method in brief: as §1

[17] = molecular target: Gal6S(b1-4)GlcNAc
Method in brief: as §1

[18] = molecular target: Gal6S(b1-4)GlcNAc6S
Method in brief: as §1

[19] = molecular target: GalNAc(a1-3)Gal
Method in brief: as §1

[20] = molecular target: GalNAc(a1-3)GalNAc
Method in brief: as §1

[21] = molecular target: GalNAc(a1-3)GalNAc(b1-3)Gal(a1-4)Gal(b1-4)Glc
Method in brief: as §1

[22] = molecular target: GalNAc(a1-3)GalNAc(b1-3)Gal(a1-4)Gal(b1-4)GlcNAc
Method in brief: as §1

[23] = molecular target: GalNAc(b1-3)Gal
Method in brief: as §1

[24] = molecular target: GalNAc(b1-3)Gal(a1-4)Gal(b1-4)GlcNAc
Method in brief: as §1

[25] = molecular target: GalNAc(b1-3)Gal(a1-4)Gal(b1-4)GlcNAc(b1-3)Gal(b1-4)Glc
Method in brief: as §1

[26] = molecular target: GalNAc(b1-3)Gal(a1-6)Gal(b1-4)Glc
Method in brief: as §1

[27] = molecular target: GalNAc(b1-3)GalNAc
Method in brief: as §1

[28] = molecular target: GalNAc(b1-3)GlcNAc
Method in brief: as §1

[29] = molecular target: GalNAc(b1-4)Gal(b1-4)Glc
Method in brief: as §1

[30] = molecular target: GalNAc(b1-4)GlcNAc
Method in brief: as §1

B1: GS7807I-bvu-563-22-563 (Bacteroides vulgatus) (protein)
chain: IFSSCTDDFEKLNTSNIQVDPADLPFAAQCTEPMTYCYPPQQNMFQFWTNLTIDLYGGYFMTPNGNFTNGDMGENRGHSGGMYENYYLHIFNNTRRIIAQCDASGERGLSGVMRIVQAYGTLMTTDAYGPIPYSSILSGENEVYFEFDSQKDLYKAMLEDLSTAITDISAMGADEIAKLKSFDCWCNGDKDLWVKIANTMKLRMALRLSKRETEAGNAGMNLKAIATEAAQNTLATVNKDILIDKSLENEMWLMFNWGDCGFNANLVTIMSGTKDPRQPLYMTLNTGDIKNEAGTTTVAANSQYLGIRFASGLPAKPNSWGNFSGWIQGNNGSSYSMPLPIMKAAEAYFLLAEAKLRWDIGSESVKNLYENGIRVSMTNELAYRGAYAGIKEYPEGAVDAYINGTSTQIDYTDPIKAELSTPAVNKLSVKWDESASNEEKLERIITQKWLALFPLSTEGWAEQRRTGYPRFFPAFVNESNGAVNTEEGVRRVIYSSQAYDANAKGVEGGIKLLDEENSSKFGISGDKGGTHLWWDNADKGNF
glycan array binding signal (z-score) [1]: -0.991
glycan array binding signal (z-score) [2]: -0.158
glycan array binding signal (z-score) [3]: 0.149
glycan array binding signal (z-score) [4]: 0.573
glycan array binding signal (z-score) [5]: 0.875
glycan array binding signal (z-score) [6]: 0.641
glycan array binding signal (z-score) [7]: -0.049
glycan array binding signal (z-score) [8]: -1.33
glycan array binding signal (z-score) [9]: 0.51
glycan array binding signal (z-score) [10]: -1.03
glycan array binding signal (z-score) [11]: 0.966
glycan array binding signal (z-score) [12]: -0.562
glycan array binding signal (z-score) [13]: 0.978
glycan array binding signal (z-score) [14]: 1.11
glycan array binding signal (z-score) [15]: -0.222
glycan array binding signal (z-score) [16]: -1.23
glycan array binding signal (z-score) [17]: -0.111
glycan array binding signal (z-score) [18]: -0.971
glycan array binding signal (z-score) [19]: 0.014
glycan array binding signal (z-score) [20]: -0.653
glycan array binding signal (z-score) [21]: -0.892
glycan array binding signal (z-score) [22]: 0.495
glycan array binding signal (z-score) [23]: 0.069
glycan array binding signal (z-score) [24]: 2.32
glycan array binding signal (z-score) [25]: -0.527
glycan array binding signal (z-score) [26]: -0.787
glycan array binding signal (z-score) [27]: -0.866
glycan array binding signal (z-score) [28]: 0.464
glycan array binding signal (z-score) [29]: 0.944
glycan array binding signal (z-score) [30]: -0.355
